Experimental data from PMC2082039.
These are yes or no findings as the source states them, for the method shown. In cells and extracts the contact can be indirect. Some entries that bind do so weakly or less than the wild type.

Sequences of proteins named here, by UniProt entry; tags and fusion partners are left off.
UniProt P10415: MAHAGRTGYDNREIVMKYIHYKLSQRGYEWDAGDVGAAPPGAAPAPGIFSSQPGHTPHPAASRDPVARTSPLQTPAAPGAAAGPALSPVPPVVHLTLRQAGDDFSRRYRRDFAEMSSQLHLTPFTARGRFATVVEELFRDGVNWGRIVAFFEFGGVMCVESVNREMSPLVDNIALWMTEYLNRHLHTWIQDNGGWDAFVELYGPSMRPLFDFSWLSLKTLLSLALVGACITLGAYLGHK
UniProt Q04206: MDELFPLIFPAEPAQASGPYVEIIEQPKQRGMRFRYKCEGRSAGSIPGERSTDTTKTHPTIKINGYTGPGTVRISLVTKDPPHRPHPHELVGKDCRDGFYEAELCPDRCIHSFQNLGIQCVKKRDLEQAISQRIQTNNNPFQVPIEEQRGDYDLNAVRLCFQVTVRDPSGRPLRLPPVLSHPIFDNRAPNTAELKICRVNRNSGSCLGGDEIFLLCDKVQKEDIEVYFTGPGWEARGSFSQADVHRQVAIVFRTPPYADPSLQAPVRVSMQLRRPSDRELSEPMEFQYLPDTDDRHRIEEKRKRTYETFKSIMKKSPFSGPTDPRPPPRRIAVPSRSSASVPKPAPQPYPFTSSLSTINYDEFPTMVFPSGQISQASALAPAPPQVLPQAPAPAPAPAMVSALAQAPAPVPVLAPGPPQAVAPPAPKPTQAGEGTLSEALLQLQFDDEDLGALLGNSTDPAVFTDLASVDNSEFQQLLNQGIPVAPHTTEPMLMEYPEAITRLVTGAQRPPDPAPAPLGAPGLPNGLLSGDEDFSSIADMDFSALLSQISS
UniProt P35222: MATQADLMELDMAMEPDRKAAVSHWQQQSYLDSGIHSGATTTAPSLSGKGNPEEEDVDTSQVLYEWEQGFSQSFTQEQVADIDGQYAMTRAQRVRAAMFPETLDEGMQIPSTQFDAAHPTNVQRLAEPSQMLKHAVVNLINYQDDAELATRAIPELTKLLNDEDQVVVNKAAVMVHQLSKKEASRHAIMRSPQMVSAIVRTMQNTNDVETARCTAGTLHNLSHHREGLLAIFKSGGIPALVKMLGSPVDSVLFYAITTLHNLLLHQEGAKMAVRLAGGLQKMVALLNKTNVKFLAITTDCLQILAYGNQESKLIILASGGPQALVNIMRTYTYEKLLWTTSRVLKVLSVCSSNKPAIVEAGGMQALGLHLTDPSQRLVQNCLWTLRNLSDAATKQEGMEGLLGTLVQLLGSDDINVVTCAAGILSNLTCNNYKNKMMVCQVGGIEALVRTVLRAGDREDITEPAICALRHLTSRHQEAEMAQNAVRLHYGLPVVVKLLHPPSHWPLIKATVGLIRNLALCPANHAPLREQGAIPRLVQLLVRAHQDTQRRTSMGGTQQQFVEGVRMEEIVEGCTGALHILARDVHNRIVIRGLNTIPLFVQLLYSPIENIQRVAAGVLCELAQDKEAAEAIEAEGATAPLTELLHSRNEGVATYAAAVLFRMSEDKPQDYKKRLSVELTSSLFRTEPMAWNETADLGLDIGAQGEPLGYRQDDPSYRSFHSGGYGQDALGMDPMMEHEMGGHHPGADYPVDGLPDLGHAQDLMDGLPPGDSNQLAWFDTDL
UniProt P63104: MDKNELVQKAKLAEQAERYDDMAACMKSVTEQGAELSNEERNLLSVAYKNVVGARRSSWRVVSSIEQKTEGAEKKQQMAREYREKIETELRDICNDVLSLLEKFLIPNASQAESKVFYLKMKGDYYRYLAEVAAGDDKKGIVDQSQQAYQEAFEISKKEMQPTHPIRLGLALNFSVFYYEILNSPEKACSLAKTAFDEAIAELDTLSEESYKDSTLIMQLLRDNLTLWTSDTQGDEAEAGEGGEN

Tests used:
Experiment in all cases: co-IP; endogenous proteins in HSC2 cell lysate (IP lysis buffer); pre-cleared, incubated with antibodies to 14-3-3ζ, NFκB, β-catenin or Bcl-2 (1:100) overnight at 4°C, protein A-Sepharose 4 hrs at 4°C, washed 4-5 times with lysis buffer; western blotting; negative control without primary antibody
[1] = target: Bcl-2 (human (endogenous in HSC2)) (UniProt P10415)
[2] = target: p65 subunit of NFκB (human (endogenous in HSC2)) (UniProt Q04206)
[3] = target: β-catenin (human (endogenous in HSC2)) (UniProt P35222)
[4] = target: 14-3-3ζ protein (human (endogenous in HSC2)) (UniProt P63104)

binding [1]	binding [2]	binding [3]	binding [4]	Substance
binds	binds	binds		14-3-3ζ protein (from UniProt P63104 1-245)
			binds	p65 subunit of NFκB (from UniProt Q04206 1-551)
			binds	β-catenin (from UniProt P35222 1-781)
			binds	Bcl-2 (from UniProt P10415 1-239)
